Here are results for eight compounds from article PMC3386930, “Altering APP Proteolysis: Increasing sAPPalpha Production by Targeting Dimerization of the APP Ectodomain” (PLoS ONE, 2012).

The chains behind the UniProt entries cited, without tags or fusion partners. Where a name states a change or a piece, a line headed by the entry shows the natural chain unless it says otherwise.
UniProt P05067: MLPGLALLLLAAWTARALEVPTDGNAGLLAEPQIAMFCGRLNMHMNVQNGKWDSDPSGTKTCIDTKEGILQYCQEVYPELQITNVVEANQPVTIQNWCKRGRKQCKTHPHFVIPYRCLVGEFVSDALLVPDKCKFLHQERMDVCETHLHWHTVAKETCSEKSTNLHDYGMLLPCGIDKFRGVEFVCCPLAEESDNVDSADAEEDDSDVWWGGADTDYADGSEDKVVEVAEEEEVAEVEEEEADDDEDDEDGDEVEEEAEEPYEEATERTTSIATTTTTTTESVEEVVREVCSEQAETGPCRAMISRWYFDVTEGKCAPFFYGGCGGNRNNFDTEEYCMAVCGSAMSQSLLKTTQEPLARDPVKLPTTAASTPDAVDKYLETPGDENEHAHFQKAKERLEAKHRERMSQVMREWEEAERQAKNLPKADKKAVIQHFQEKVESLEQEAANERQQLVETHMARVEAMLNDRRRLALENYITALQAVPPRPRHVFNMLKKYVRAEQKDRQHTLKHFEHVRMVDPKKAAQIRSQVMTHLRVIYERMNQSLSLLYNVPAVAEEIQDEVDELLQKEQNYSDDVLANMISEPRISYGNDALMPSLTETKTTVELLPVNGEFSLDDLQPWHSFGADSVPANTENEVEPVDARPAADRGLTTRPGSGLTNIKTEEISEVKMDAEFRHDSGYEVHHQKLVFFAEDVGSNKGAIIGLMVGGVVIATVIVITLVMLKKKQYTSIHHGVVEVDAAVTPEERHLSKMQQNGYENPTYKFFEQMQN

In one data set the test system is MBP-eAPP230–624. In words: Small-angle X-ray scattering (SAXS) of MBP-eAPP230–624 complexes. Type of data set: binding. The settings on record: for MWcalc/MWseq: SAXS relative mass, max. error ±0.2; for Rg / Dmax: SAXS; for Rg: max. estimated error ±2 Å; for Dmax: max. estimated error ±10 Å. The protocol: The excitation spectra of the intrinsic tryptophan fluorescence were recorded using either a Shimadzu RF-530PC (Shimadzu Scientific Instruments) or a Spectramax XPS spectrophotometer (Molecular Devices).
The samples were incubated on ice for 20 minutes and then concentrated to 50 µl with 10-kDa cutoff concentrators (Millipore). […] Samples of the filtrates were used for buffer subtraction.
The samples were then concentrated and purified with a Superdex S200 size-exclusion column with 20 mM Tris pH 7.4, 100 mM sodium chloride and 2 mM EDTA. Samples of the protein buffer from the size-exclusion columns were used for buffer subtraction.
Data collection and processing
Small-angle X-ray scattering data were collected using protein concentrations in the range of 0.5–3 mg/ml and an X-ray wavelength of 1.11 Å at beam line 12.3.1 (Advanced Light Source). Data were integrated with software customized for the beam line and processed with the program PRIMUS [30]. The program GNOM [31] was used to calculate the maximum dimension and the radius of gyration and to estimate the intensity of the scattering at zero angle for higher concentration samples.

In another data set the test system is TRX-eAPP290–624. In words: Small-angle X-ray scattering (SAXS) of TRX-eAPP290–624 complexes. Type of data set: binding. The settings on record: for MWcalc/MWseq: SAXS relative mass, MWseq 52-kDa for TRX-eAPP290–624, max. error ±0.2, monomer around 1.3, protein alone 2.0; for Dmax / Rg: SAXS, GNOM, TRX-eAPP290–624 with peptide; for Dmax: maximum dimension, max. estimated error ±10 Å; for Rg: radius of gyration, max. estimated error ±2 Å.

The mark [1] stands for this setting: 50 µM compound, 1:12 molar ratio, PBS plus 2% DMSO, 2% DMSO control 2.0.
Setting [2] is: 50 µM compound, 1:12 molar ratio, PBS plus 2% DMSO, 2% DMSO control 54.
The mark [3] stands for this setting: 50 µM compound, 1:12 molar ratio, PBS plus 2% DMSO, 2% DMSO control 180.
Where [4] appears, read: MWseq 90-kDa for MBP-eAPP230–624, Aβ peptides, protein alone 2.0.
The mark [5] stands for this setting: maximum dimension, GNOM, MBP-eAPP230–624 with Aβ peptide.
Where [6] appears, read: radius of gyration, GNOM, MBP-eAPP230–624 with Aβ peptide.
Setting [7] is: 1,8-ANS at 1:20 molar ratio of protein to 1,8-ANS.

With `CCN(CC)C(=S)SC(=S)N(CC)CC` [Sulfiram], the MWcalc/MWseq in the data set with MBP-eAPP230–624 (setting [1]) was 1.7. Besides, the Rg with MBP-eAPP230–624 (setting [2]) is given as 53 Å. Also, the Dmax in the data set on MBP-eAPP230–624 (setting [3]) is listed as 170 Å.
With “7-kDa Aβ1-40: 7-kDa Aβ1-40 dimers, prepared by sonication and 15 minutes incubation”, the MWcalc/MWseq with TRX-eAPP290–624 and with MBP-eAPP230–624 (setting [4]) was 1.1 throughout. Moreover, the Dmax is given as 160 Å in the data set with TRX-eAPP290–624 and 210 Å with MBP-eAPP230–624 (setting [5]). Also, the Rg is on record as 40 Å with TRX-eAPP290–624 and 63 Å in the data set on MBP-eAPP230–624 (setting [6]).
Turning to `CCN(CC)C(=S)SSC(=S)N(CC)CC` [Disulfiram], in the data set on MBP-eAPP230–624 (setting [1]), the MWcalc/MWseq is on record as 1.5. In addition, the Rg with MBP-eAPP230–624 (setting [2]) is on record as 51 Å. Also, the Dmax in the data set with MBP-eAPP230–624 (setting [3]) was 160 Å.
Regarding Aβ1-28: Aβ fragment, the MWcalc/MWseq is recorded as 1.5 in the data set on TRX-eAPP290–624 and 1.2 in the data set on MBP-eAPP230–624 (setting [4]). For the same compound, the Dmax in the data set with TRX-eAPP290–624 was 140 Å; in the data set on MBP-eAPP230–624 (setting [5]), 180 Å. For the same compound, the Rg is recorded as 42 Å in the data set with TRX-eAPP290–624 and 54 Å in the data set on MBP-eAPP230–624 (setting [6]).
Take 20-kDa Aβ1-42: 20-kDa Aβ1-42 oligomers: the Dmax is given as 160 Å with TRX-eAPP290–624 and 210 Å in the data set on MBP-eAPP230–624 (setting [5]). Further, the Rg was 43 Å in the data set on TRX-eAPP290–624 and 58 Å with MBP-eAPP230–624 (setting [6]).
For `O=S(=O)(O)c1cccc2cccc(Nc3ccccc3)c12` [1,8-ANS, 1-anilinonaphthalene-8-sulfonic acid], the MWcalc/MWseq in the data set on MBP-eAPP230–624 (1,8-ANS at 1:20 molar ratio) is 1.9. In the data set on MBP-eAPP230–624 (setting [7]), the Rg is recorded as 63 Å and the Dmax is on record as 190 Å.
Consider “Aβ11-17: Aβ fragment (EVHHQKL; Amyloid-beta protein 42; UniProt P05067 682-688, looked up, fragment)”, for which, in the data set on TRX-eAPP290–624, the MWcalc/MWseq was 1.2, the Dmax is reported as 130 Å and the Rg was 38 Å.
For the compound “Aβ5-14: Aβ fragment (RHDSGYEVHH; Amyloid-beta protein 42; UniProt P05067 676-685, looked up, fragment)”, the MWcalc/MWseq in the data set on MBP-eAPP230–624 (setting [4]) is recorded as 1.6. The Dmax in the data set with MBP-eAPP230–624 (setting [5]) is 180 Å. Further, the Rg with MBP-eAPP230–624 (setting [6]) was 54 Å.
